{"sequences": {"note": "Chains of the proteins cited; added tags and fusions are not shown.", "UniProt P14902": "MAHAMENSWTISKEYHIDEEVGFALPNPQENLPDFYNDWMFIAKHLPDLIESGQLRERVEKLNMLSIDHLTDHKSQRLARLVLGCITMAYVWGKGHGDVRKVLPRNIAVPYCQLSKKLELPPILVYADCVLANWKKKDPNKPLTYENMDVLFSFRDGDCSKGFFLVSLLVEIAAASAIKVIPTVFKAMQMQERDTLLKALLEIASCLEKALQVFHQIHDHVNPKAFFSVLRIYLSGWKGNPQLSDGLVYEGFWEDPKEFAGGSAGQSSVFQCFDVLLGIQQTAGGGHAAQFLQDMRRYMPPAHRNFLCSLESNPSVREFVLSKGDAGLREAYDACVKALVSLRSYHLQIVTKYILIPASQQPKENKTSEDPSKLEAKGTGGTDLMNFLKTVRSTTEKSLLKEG", "UniProt P04406": "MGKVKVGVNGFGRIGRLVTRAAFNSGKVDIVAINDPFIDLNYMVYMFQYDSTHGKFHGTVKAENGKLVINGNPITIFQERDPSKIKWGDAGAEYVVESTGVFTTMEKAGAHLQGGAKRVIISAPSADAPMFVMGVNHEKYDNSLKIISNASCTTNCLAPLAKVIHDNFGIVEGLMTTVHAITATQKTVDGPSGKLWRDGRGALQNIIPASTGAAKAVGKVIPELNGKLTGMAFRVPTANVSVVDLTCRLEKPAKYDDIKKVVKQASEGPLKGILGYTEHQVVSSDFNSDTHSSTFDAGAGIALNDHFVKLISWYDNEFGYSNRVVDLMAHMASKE"}, "source": "paper PMC12329532", "target": "FLAG-tagged wild type human IDO1 expressed in HEK293T cells (human) (UniProt P14902)", "assay": "co-IP; anti-FLAG IP of HEK293T cell supernatants (1 mg), protein G agarose, blot with anti-GAPDH; 50 mM Tris-HCl pH 7.4, 0.1% Triton X-100, 100 mM NaCl; in part of the experiments after siRNA knock-down of native GAPDH and rescue with HA-GAPDH", "note": "These are yes or no findings as the source states them, for the method shown. Binding seen in cells or lysates may run through a third protein. Some entries that bind do so weakly or less than the wild type."}
{"substance": "GAPDH of HEK293T cells (native) (from UniProt P04406 1-335) (enzyme)", "values": [{"measurement": "binding", "result": "binds"}]}
